Assays:
A549 = test: cells; format: cell-based; conditions: Homo sapiens, A549, 72 h, read-out: IC50 (drug concentration that inhibits cell division by 50%)
Protocol: (§1) The drug-sensitive mouse macrophage-like cell line, J774.2, and its Taxol-resistant cell line, J7-T3-1.6, were maintained as previously described. […] Drug-sensitive and vinblastine-resistant human ovarian carcinoma cell lines, SKOV3 and SKVLB, were obtained from Dr. V. Ling, and were maintained as previously described. Both J7-T3-1.6 and SKVLB cells overexpress P-glycoprotein. SKVLB cells were grown in the presence of 1 μM vinblastine. The Taxol-resistant human non-small-cell lung carcinoma cell line, A549-T12, was derived from the drug-sensitive A549 cell line; both cell lines were maintained as previously described.
For the A549 cell lines, cells were seeded at a density of 1×10^4 cells/mL (A549) or 3×10^4 cells/mL (A549-T12), in triplicate, 6-well plates, and allowed to attach for 24 h. […] The SKOV3 and SKVLB cell lines were assayed in a similar manner. Cells were seeded in triplicate, at a density of 6×10^3 cells/mL (SKOV3) or 12×10^3 cells/mL (SKVLB), in 6-well plates, and incubated with a drug for 6 days. […] J774.2 and J7-T3-1.6 cells were plated at a density of 2×10^4 cells/well, in 96-well plates, and allowed to attach overnight. Serial dilutions of each drug were performed, and the cells were incubated for 72 h. The IC50 was determined using the CellTiter 96™ AQueous nonradioactive cell proliferation assay (Promega, Madison, Wis.), which correlates with the number of live cells. […]

A549-T12 = test: cells; format: cell-based, human; conditions: 72 h
Protocol: as §1
For the A549 cell lines, cells were seeded at a density of 1×10^4 cells/mL (A549) or 3×10^4 cells/mL (A549-T12), in triplicate, 6-well plates, and allowed to attach for 24 h. […] The SKOV3 and SKVLB cell lines were assayed in a similar manner. Cells were seeded in triplicate, at a density of 6×10^3 cells/mL (SKOV3) or 12×10^3 cells/mL (SKVLB), in 6-well plates, and incubated with a drug for 6 days. […] J774.2 and J7-T3-1.6 cells were plated at a density of 2×10^4 cells/well, in 96-well plates, and allowed to attach overnight. Serial dilutions of each drug were performed, and the cells were incubated for 72 h. The IC50 was determined using the CellTiter 96™ AQueous nonradioactive cell proliferation assay (Promega, Madison, Wis.), which correlates with the number of live cells. Different methods for determining IC50 values were used, depending on the most accurate method for each particular set of cell lines.

SMILES: COc1cc2c(c(OC)c1OC)-c1ccc(OC)c(=O)cc1[C@@H](NC(C)=O)CC2 [CLC, colchicine]
- IC50 (A549): 33 nM
- Fold resistance (ratio of IC50 A549-T12 to A549) (A549-T12): 1.0 fold
- Fold resistance (ratio of IC50 A549-T12 to A549) (A549-T12; listed as colchicine): no cross-resistance
- IC50 (A549-T12; Homo sapiens, read-out: IC50 (drug concentration that inhibits cell division by 50%)): 33 ± 12.7 nM

Source: patent US6541509B2 (priority 2000, dated 2003)
